In PubChem BioAssay AID1347076 (National Center for Advancing Translational Sciences (NCATS), 2019):
The whole screen tested about 400,000 compounds, of which about 13,000 (3.2%) were called active. Inconclusive results, whose numbers are uncertain, are shown with a selection of clear calls. Calls follow the shape of the dose curve; as a rule, active = well fitted cell-killing curve with a large enough effect; inconclusive = small, poorly fitted or top-dose-only effect, or effect the other way; inactive = flat fitted curve, though single readings scatter. Potencies of inconclusive entries are doubtful fits and often do not repeat.

Assay: qHTS assay for MDR1-selective chemotherapeutics: Primary screen using the drug-selected MDR subline cells KB-V1; also: nearly all actives have a fitted effect of over 60% in size
Settings: KB-V1 MDR cells viability, CellTiter-Glo, 72 h; activity change, negative = cytotoxicity: at 46.1 µM (top of the series)
In short: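 Potencies derive from concentration-effect curves fitted to normalized luminescence (CellTiter-Glo) of KB-V1 cells treated for 72 h at 37 degrees C in phenol-red-free DMEM containing 10% FBS.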
% is scaled to controls: 0 for no effect and ±100 for the full control effect; potency is read from the fitted curve at half-maximal effect.

SMILES	activity change, negative = cytotoxicity	Potency
CN(C)C(=O)CCc1ccc2c3c([nH]c2c1)[C@]1(C)[C@@H](C(=O)N2CCCCC2)C[C@H](CC(=O)NCCCn2ccnc2)C(=O)N1CC3	inactive: -0.0234%	
O=C(c1[nH]c(C(F)(F)F)nc1-c1ccccc1)N1CCN(c2cccc(C(F)(F)F)n2)CC1		inconclusive: 18.4 µM [cytotoxic, partial curve]
OC[C@@H]1[C@@H](c2ccccc2)C(c2ccc(F)cc2)=NN1c1ccccc1	inactive: -29.9%	
COc1cccc(CN(C)CC(=O)NCc2ccccc2Cl)c1OC		inconclusive: 14.6 µM [cytotoxic, partial curve]
CC(C)C[C@@H](CN=[N+]=[N-])N1CCN(Cc2ccccc2)CCC1=O		inconclusive: 14.6 µM [cytotoxic, single point]
Cc1ccc2oc(-c3ccc(C)c(NC(=O)Cc4cccs4)c3)nc2c1		inconclusive: 7.31 µM [cytotoxic, partial curve]
COc1ccccc1OCCCCn1ncc2ccc(OC)c(OC)c2c1=O	inactive: -2.47%	
COC(=O)Cn1c(=O)c2c(nc3n2CCCN3CCc2ccccc2)n(C)c1=O	inactive: -2.01%	
Cc1ccccc1-c1ocnc1C(=O)Nc1ccccc1NC(=O)c1ccccn1		inconclusive: 18.4 µM [cytotoxic, single point]
CC(=C/c1ccccc1)/C=N/n1cnnc1	inactive: 3.66%	
CCC(C)CNC(=O)c1[nH]c(C(F)(F)F)nc1-c1ccccc1 (centres undefined)		inconclusive: 29.1 µM [cytotoxic, single point]
Cc1ccc(NC(=O)Cn2c(=O)n(CCC(=O)NCc3ccccc3Cl)c(=O)c3ccccc32)c(C)c1		inconclusive: 32.6 µM [rising, single point]
CCn1c(SCC(=O)N2CCN(c3ccc(F)cc3)CC2)nc2ccccc2c1=O		inconclusive: 29.1 µM [cytotoxic, single point]
O=C(NCCc1ccncc1)Nc1cccc(Cl)c1	inactive: 14.9%	
Cc1cccc(NS(=O)(=O)c2ccc3nc(-c4ccccc4)[nH]c3c2)c1C		inconclusive: 0.082 µM [cytotoxic, partial curve, poor fit]
COC(=O)[C@@]12CCCN1[C@H](c1ccc(SC3CCCCC3)cc1)[C@H]1C(=O)N(C)C(=O)[C@H]12	inactive: 0.611%	
CCOC(=O)c1scc(-c2ccc(C)cc2)c1S(=O)(=O)Nc1ccc(OC)c(Cl)c1	inactive: 5.42%	
CCOCCCNc1nc2cc(OC)c(OC)cc2c2nc(-c3ccccc3)nn12		inconclusive: 10.3 µM [cytotoxic, partial curve, poor fit]
CCC(=O)N1CCc2cc(S(=O)(=O)CCC(=O)Nc3cccc(C)n3)ccc21		inconclusive: 4.61 µM [rising, single point]
COc1ccc(C2C(C(=O)Nc3ccccc3)=C(C)Nc3nc(-c4ccccc4Cl)nn32)cc1OC (centres undefined)	inactive: 21.1%	
CCCn1nnc2sc3c(c2c1=O)CCC(C)C3 (centres undefined)		inconclusive: 29.1 µM [cytotoxic, single point]
CCOc1ccc(N=Nc2c(=O)[nH]n3c(C)cc(C)nc23)cc1		inconclusive: 20.6 µM [cytotoxic, partial curve]
C/C(CC(=O)Nc1cc(C)ccn1)=N\NC(=O)C(=O)NC(C)C	inactive: 24.7%	

Random excerpt: four entries already listed.
SMILES	activity change, negative = cytotoxicity	Potency
CC(=C/c1ccccc1)/C=N/n1cnnc1	inactive: 3.66%	
COc1cccc(CN(C)CC(=O)NCc2ccccc2Cl)c1OC		inconclusive: 14.6 µM [cytotoxic, partial curve]
COC(=O)Cn1c(=O)c2c(nc3n2CCCN3CCc2ccccc2)n(C)c1=O	inactive: -2.01%	
CCn1c(SCC(=O)N2CCN(c3ccc(F)cc3)CC2)nc2ccccc2c1=O		inconclusive: 29.1 µM [cytotoxic, single point]

Following part.

SMILES	activity change, negative = cytotoxicity	Potency
O=C(Nc1ccc2nc(SCCOc3ccccc3)sc2c1)c1ccc2c(c1)OCO2	inactive: -1.64%	
O=C(CSc1ccc(F)cc1)NCC1(N2CCOCC2)CCCCC1		inconclusive: 23.1 µM [cytotoxic, single point]
Cc1ccc(Cc2c(-c3ccc(C#N)cc3)nc3c4ccccc4ccn23)cc1		inconclusive: 2.91 µM [cytotoxic, partial curve, poor fit]
CCCN(CC(=O)Nc1ccccc1C)C(=O)/C=C/c1ccc(S(=O)(=O)N2CCCCCC2)cc1		inconclusive: 2.59 µM [cytotoxic, full curve]
COc1cc(OC)c(N(C)S(=O)(=O)c2cccc(C(=O)Nc3nc(C)cs3)c2)cc1Cl		inconclusive: 29.1 µM [cytotoxic, single point]
C=CCOC(=O)C1=C(C)Nc2nc3ccccc3n2C1c1ccncc1 (centres undefined)		inconclusive: 16.4 µM [cytotoxic, single point]
O=C(C1CC1)N1CCN(c2ccc([N+](=O)[O-])cc2)CC1		inconclusive: 23.1 µM [cytotoxic, partial curve, poor fit]
CCCOC(=O)/C(C(N)=NCc1ccccc1)=C(\O)OCCC		inconclusive: 18.4 µM [cytotoxic, single point]
CC1CC(C)CN(S(=O)(=O)c2ccc3c(c2)oc(=O)n3CC(=O)NCc2cccnc2)C1 (centres undefined)		inconclusive: 0.731 µM [rising, full curve, poor fit]
Cc1ccc(NCC(=O)c2ccc(C)cc2)cc1		inconclusive: 29.1 µM [cytotoxic, single point]
COc1ccc(Nc2nnc(-c3ccc(C)c(S(=O)(=O)N4CCOCC4)c3)c3ccccc23)cc1		inconclusive: 25.9 µM [cytotoxic, partial curve, poor fit]
CC(=O)c1cccc(OCCCOc2cccc3cccnc23)c1		inconclusive: 11.6 µM [cytotoxic, partial curve]
CSCCC(NC(=O)c1ccc(Cl)cc1)C(=O)O (centres undefined)		inconclusive: 18.4 µM [rising, single point]
Cc1cc(C(F)(F)F)n2ncc(C(=O)O)c2n1	inactive: -24.6%	
COc1ccc(C2CC(=O)c3c([nH]c(C(=O)OCc4ccccc4)c3C)C2)cc1OC (centres undefined)	inactive: -7.17%	
N#Cc1ccc(OCC(=O)OCC(=O)Nc2cc(C(F)(F)F)ccc2N2CCOCC2)cc1	inactive: -1.7%	
COc1ccc(/C=C(/NC(=O)c2ccccc2)C(=O)N2CCCC2)cc1	inactive: 1.26%	
CCOC(=O)c1c(C)c(C(=O)NCc2cccs2)c(C)n1CC		active: 14.6 µM
COc1ccc(N(CC(=O)Nc2ccc(OC)cc2OC)S(=O)(=O)c2ccccc2)cc1		inconclusive: 10.3 µM [cytotoxic, partial curve, poor fit]
COc1ccc(/C=N/NC(=O)Cn2nc([N+](=O)[O-])cc2C)c(OC)c1OC	inactive: 4.69%	
COc1ccc(OCC(O)CN2CCN(c3ccccc3)CC2)cc1 (centres undefined)	inactive: -14.4%	
OC(CNC1CCCCC1)COCCOc1ccc(Br)cc1 (centres undefined)		active: 23.1 µM
Cc1c(Cc2ccccc2)c(NCCCO)n2c(nc3ccccc32)c1C#N		inconclusive: 16.4 µM [cytotoxic, partial curve, poor fit]

SMILES	activity change, negative = cytotoxicity	Potency
CCOc1ccccc1/C=N/NC(=O)CNC(=O)c1cccs1		inconclusive: 8.2 µM [rising, partial curve, poor fit]
Cc1sc2nc(C)n(/N=C/c3ccc(O)cc3)c(=O)c2c1C	inactive: -8.57%	
CC(C)C(NC(=O)CN1C(=O)c2ccccc2S1(=O)=O)C(C)C		inconclusive: 0.58 µM [rising, full curve, poor fit]
CC1(C(=O)Nc2cccc(C(F)(F)F)c2)Cc2c(-c3ccc4c(c3)OCO4)ccnc2O1 (centres undefined)	inactive: -0.778%	
COc1ccc([C@@H]2CC=C(C(=O)O)CN2S(=O)(=O)c2ccc(Cl)cc2)cc1		inconclusive: 16.4 µM [rising, single point]
COc1ccc(NC(=S)NCc2cccs2)cc1OC	inactive: 16.1%	
Cc1cc(=O)[nH]c(SCC(=O)Nc2nc3ccccc3s2)n1		inconclusive: 23.1 µM [rising, single point]
COC(=O)c1ccc(OC(=O)c2ccncc2)cc1O	inactive: -7.71%	
CCC(CO)NCc1ccc(-c2ccccc2)cc1 (centres undefined)		inconclusive: 9.2 µM [cytotoxic, partial curve]
O=C(c1ccc(Cl)c(S(=O)(=O)N2CCOCC2)c1)N1CCCCCC1		inconclusive: 18.4 µM [cytotoxic, partial curve]
CC1CCC(C(=O)NC(C(=O)Nc2ccccn2)C(C)C)CC1 (centres undefined)		inconclusive: 4.11 µM [cytotoxic, full curve, poor fit]
COCCNC(=O)CSc1nc(-c2ccccc2)c(-c2ccccc2)o1		inconclusive: 10.3 µM [cytotoxic, partial curve, poor fit]
CC(=O)c1ccc(N2CCN(S(=O)(=O)c3ccccc3)CC2)c(F)c1		inconclusive: 29.1 µM [cytotoxic, partial curve, poor fit]
Cc1ccc(CNC(=O)CN(c2cc(C)cc(C)c2)S(=O)(=O)c2c(C)[nH]c(=O)[nH]c2=O)cc1	inactive: 0.901%	
CN(C(=O)c1cc2c(=O)n3ccccc3nc2n1C)C1CCCCC1		inconclusive: 2.31 µM [cytotoxic, full curve]
CC(=O)c1cnn(-c2nc3c(C)cccc3s2)c1C		inconclusive: 20.6 µM [cytotoxic, single point]
CCc1ccc(C2c3c(n[nH]c3C)C(=O)N2c2ccc(C)cc2)cc1 (centres undefined)		inconclusive: 29.1 µM [cytotoxic, single point]
CC(=O)[C@H]1[C@H](C#N)C[C@H]2[C@@H]3CC=C4C[C@@H](O)CC[C@]4(C)[C@H]3CC[C@@]21C		inconclusive: 23.1 µM [cytotoxic, single point]
O=C(Nc1ccc2c(c1)CCCN2C(=O)c1ccccc1)c1ccccc1Br		inconclusive: 18.4 µM [cytotoxic, single point]
Cc1ccc(S(=O)(=O)n2cc(-c3ccccc3)c3ccccc32)cc1		active: 1.3 µM
COc1ccc(CCNC(=O)CSc2ccc(-c3ccncc3)nn2)cc1	inactive: 21.3%	
CC(=O)c1cccc(NC(=O)c2ccc(OC3CSC3)cc2)c1		inconclusive: 29.1 µM [rising, single point]
Cc1cc(C(=O)CN2C(=O)C(=O)N(Cc3ccco3)C2=O)c(C)n1CCc1ccc(F)cc1		active: 14.6 µM

Look-ups from above.
Cc1sc2nc(C)n(/N=C/c3ccc(O)cc3)c(=O)c2c1C | activity change, negative = cytotoxicity: inactive: -8.57%
CN(C(=O)c1cc2c(=O)n3ccccc3nc2n1C)C1CCCCC1 | Potency: inconclusive: 2.31 µM [cytotoxic, full curve]
